The record followed here is the supplement of paper PMC6411743.

Amino acid sequences for entries named in this document (tags omitted). A change or cut given only in a name is not applied to a line headed by its entry.
UniProt Q9Y324: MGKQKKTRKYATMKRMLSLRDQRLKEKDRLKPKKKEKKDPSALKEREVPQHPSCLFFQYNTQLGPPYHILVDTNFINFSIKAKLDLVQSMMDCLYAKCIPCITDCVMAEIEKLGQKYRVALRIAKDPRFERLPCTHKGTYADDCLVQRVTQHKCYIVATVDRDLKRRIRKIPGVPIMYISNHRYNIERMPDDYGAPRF
UniProt Q8NBI5: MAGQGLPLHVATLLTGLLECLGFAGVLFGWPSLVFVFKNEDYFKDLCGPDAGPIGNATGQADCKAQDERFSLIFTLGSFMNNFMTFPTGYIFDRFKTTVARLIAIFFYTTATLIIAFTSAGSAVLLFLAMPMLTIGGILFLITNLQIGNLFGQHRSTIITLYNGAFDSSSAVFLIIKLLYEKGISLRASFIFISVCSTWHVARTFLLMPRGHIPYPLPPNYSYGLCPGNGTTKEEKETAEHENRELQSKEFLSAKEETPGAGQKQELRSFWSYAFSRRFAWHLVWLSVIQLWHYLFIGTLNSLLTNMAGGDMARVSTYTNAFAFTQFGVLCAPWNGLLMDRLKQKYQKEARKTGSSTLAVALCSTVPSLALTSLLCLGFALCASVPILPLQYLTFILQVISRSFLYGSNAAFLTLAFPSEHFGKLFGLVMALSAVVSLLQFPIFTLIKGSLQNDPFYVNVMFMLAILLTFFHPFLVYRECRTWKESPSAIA
UniProt P48509: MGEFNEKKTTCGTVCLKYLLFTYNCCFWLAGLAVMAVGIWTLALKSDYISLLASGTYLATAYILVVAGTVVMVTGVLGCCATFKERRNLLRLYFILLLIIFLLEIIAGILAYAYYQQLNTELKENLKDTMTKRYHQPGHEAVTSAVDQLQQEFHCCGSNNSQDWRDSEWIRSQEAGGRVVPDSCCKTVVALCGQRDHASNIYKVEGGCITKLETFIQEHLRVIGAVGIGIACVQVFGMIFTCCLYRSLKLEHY
UniProt O15014: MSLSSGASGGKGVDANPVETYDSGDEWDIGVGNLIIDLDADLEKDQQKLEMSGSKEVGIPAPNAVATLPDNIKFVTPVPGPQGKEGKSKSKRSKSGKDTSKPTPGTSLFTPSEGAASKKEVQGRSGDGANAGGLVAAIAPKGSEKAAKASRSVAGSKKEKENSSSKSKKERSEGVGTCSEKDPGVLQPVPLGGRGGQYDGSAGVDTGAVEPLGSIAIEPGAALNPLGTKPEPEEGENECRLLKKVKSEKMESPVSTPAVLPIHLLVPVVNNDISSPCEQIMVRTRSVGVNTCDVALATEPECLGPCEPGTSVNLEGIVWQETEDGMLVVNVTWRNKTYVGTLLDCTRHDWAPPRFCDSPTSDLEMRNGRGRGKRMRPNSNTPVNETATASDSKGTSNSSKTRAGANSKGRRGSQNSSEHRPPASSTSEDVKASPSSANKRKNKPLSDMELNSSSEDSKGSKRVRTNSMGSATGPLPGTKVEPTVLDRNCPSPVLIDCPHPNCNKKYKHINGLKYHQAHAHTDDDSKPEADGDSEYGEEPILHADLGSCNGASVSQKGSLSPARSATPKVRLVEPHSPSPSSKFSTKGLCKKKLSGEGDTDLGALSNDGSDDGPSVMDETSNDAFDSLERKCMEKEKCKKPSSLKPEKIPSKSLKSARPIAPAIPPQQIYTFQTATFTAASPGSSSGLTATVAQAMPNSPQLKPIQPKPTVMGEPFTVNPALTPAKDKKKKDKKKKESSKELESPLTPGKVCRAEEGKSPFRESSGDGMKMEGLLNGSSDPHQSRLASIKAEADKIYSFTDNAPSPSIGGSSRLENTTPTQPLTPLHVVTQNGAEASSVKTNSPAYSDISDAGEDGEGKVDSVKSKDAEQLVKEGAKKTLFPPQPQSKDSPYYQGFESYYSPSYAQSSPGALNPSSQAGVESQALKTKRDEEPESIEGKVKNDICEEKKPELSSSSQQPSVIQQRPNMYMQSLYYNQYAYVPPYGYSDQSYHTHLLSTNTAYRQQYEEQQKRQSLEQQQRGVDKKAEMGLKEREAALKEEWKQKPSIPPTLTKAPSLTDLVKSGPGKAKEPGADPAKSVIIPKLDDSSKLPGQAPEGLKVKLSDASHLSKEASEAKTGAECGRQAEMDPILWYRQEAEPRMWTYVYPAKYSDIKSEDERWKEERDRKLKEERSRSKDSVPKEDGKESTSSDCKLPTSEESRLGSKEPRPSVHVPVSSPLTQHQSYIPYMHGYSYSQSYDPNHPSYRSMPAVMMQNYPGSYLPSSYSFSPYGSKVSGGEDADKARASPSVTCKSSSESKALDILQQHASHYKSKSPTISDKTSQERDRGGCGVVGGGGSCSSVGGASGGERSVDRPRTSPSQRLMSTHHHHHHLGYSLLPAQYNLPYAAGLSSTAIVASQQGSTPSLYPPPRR
UniProt Q96I99: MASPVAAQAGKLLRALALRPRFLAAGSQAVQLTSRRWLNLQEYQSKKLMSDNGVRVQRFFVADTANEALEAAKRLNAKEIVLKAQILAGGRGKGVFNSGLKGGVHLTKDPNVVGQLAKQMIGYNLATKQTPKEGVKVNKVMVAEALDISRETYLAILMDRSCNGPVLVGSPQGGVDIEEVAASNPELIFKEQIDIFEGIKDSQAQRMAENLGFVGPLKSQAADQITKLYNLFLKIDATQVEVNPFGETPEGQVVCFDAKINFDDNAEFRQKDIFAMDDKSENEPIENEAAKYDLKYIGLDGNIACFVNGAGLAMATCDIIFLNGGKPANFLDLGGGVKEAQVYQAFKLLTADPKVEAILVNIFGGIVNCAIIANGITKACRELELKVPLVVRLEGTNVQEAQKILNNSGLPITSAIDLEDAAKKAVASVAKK
UniProt Q9Y485, whole entry: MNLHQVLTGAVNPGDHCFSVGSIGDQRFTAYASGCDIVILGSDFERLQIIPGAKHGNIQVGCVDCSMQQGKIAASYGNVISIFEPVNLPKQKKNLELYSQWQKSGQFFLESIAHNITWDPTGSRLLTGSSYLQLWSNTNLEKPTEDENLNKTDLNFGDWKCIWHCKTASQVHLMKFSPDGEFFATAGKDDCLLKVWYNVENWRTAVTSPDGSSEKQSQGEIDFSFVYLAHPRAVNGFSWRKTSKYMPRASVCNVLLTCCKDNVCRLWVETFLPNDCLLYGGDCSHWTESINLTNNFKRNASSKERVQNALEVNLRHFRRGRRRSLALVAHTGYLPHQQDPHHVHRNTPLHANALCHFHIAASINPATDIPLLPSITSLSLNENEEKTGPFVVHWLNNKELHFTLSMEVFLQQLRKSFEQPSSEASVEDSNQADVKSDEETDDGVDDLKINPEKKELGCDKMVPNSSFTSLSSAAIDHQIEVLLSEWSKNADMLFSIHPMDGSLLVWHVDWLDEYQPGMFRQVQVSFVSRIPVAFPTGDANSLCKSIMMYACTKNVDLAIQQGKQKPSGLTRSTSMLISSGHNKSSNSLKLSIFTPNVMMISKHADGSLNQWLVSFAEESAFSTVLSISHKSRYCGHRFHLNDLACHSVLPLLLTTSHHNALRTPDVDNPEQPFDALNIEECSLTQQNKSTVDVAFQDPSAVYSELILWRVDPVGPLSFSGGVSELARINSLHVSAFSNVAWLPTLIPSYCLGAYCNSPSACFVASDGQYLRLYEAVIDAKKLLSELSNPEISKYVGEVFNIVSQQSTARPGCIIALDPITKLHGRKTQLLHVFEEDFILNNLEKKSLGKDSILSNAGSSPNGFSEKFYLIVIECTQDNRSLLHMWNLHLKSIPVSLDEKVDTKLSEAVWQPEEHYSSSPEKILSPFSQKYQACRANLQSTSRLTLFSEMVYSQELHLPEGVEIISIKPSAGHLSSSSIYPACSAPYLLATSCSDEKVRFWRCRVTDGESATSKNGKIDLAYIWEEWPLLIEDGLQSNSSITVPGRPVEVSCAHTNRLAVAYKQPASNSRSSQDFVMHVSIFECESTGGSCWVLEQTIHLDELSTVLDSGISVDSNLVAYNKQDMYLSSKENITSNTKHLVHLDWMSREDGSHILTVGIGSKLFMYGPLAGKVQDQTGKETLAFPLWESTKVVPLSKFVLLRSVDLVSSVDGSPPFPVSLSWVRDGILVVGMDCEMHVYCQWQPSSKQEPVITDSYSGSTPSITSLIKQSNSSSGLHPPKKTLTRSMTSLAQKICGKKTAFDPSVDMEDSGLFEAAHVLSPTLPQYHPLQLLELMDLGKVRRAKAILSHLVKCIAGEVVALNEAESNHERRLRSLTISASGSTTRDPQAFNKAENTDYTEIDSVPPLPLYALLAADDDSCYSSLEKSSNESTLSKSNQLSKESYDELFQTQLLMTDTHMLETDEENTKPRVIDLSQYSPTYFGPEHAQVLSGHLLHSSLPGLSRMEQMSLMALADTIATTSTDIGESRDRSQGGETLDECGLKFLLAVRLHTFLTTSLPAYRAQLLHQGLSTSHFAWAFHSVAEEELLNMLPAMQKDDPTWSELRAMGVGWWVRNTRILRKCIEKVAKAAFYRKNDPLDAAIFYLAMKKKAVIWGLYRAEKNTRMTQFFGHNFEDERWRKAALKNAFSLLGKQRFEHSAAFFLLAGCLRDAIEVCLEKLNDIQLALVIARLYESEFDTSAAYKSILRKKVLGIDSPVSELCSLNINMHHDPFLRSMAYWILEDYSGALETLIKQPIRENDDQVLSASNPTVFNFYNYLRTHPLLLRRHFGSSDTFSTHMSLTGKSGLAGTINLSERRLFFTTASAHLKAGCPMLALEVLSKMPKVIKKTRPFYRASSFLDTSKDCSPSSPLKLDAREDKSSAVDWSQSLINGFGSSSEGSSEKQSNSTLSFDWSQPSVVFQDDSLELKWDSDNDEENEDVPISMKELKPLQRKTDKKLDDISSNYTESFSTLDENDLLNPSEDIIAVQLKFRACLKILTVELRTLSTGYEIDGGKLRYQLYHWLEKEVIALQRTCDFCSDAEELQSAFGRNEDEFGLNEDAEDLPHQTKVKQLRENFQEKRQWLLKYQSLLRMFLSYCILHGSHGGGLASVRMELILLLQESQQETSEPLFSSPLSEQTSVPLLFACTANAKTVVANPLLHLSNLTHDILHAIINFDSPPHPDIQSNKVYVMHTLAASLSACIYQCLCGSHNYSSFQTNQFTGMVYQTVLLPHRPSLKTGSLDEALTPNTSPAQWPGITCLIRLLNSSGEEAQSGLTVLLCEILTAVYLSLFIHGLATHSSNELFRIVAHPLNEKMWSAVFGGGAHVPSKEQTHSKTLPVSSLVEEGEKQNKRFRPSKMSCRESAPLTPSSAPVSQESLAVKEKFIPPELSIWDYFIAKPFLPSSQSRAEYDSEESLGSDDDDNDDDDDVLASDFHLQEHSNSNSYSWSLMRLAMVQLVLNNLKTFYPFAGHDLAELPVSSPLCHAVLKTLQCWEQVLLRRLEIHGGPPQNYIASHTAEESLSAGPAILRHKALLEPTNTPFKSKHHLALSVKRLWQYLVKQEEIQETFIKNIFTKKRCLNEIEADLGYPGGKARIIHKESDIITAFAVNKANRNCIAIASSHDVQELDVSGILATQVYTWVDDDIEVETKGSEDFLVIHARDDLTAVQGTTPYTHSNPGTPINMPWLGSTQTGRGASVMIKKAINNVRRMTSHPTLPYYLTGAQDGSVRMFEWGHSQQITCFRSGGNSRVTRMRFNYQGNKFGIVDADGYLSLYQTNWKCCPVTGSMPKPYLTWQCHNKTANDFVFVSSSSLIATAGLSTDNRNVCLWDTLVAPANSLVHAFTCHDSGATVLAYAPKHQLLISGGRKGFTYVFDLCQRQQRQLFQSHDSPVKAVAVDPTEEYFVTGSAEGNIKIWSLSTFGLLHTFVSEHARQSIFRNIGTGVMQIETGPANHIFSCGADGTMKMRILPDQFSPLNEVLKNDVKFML
UniProt Q9UKU0: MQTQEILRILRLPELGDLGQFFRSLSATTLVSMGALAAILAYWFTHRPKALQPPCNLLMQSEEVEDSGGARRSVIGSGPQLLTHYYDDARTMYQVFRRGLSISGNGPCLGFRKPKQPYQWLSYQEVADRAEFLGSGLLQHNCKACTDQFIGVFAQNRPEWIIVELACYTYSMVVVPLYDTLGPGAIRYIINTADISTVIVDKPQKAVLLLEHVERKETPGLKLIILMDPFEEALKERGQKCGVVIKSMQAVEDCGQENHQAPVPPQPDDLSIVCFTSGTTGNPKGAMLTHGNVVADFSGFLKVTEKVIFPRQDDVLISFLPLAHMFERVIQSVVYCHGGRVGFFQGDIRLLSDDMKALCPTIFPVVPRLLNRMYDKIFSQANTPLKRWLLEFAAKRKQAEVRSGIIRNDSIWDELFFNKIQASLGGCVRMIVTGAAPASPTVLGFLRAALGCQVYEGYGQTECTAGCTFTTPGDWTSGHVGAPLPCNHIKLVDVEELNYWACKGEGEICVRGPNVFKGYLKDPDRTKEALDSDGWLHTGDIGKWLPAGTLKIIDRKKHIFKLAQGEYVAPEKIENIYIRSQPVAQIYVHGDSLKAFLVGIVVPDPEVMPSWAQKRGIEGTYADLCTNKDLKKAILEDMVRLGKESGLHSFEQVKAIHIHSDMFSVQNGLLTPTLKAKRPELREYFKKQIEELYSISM

± gives the standard deviation of the averaged measurements. This is a selection; strong and weak results do not stand in their true shares. Small differences around the control level are noise.

Compound in this assay: Nc1ncnc2c1ncn2[C@@H]1O[C@H](COP(=O)(O)OP(=O)(O)OP(=O)(O)O)[C@@H](O)[C@H]1O [adenosine triphosphate]
The assay can be described thus: NP40-soluble protein abundance relative to vehicle (solubility fold change) (ratio); higher = more soluble protein in presence of ATP. Particulars: concentration: 0.5mM. The method in brief: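 In three independent experiments, Jurkat crude lysate made by Dounce homogenisation was treated for 10 min at room temperature and then 3 min at 37 °C with eight concentrations ranging from 0.1 to 10 mM. It was then solubilised with 0.8% NP40 plus benzonase for 60 min at 4 °C and ultracentrifuged. The supernatant was TMT-labelled for LC-MS/MS, and each value is the fold change against the detergent-processed vehicle for the same replicate, using vsn-normalised intensities.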
“F5H5U2 and related entries (UniProt Q8NHQ9)”: the NP40-soluble protein abundance was 1.06 ± 0.022.

Regarding “E9PF32 and related entries (UniProt A2RUS2)”, the NP40-soluble protein abundance amounted to 0.986 ± 0.015.

With “F2Z2X4 and related entries (UniProt Q9C0E2)”, the NP40-soluble protein abundance was determined as 1.01 ± 0.05.

Take “F2Z388 and related entries (UniProt P42766)”: the NP40-soluble protein abundance was found to be 1 ± 0.094.

Consider “E7EU96 and related entries (UniProt P68400)”, for which the NP40-soluble protein abundance was found to be 1.03 ± 0.077.

With “G3V1S4 and related entries (UniProt Q9Y324)”, the NP40-soluble protein abundance was 1.03 ± 0.12.

On to “G3V5T9 and related entries (UniProt P24941)”, for which the NP40-soluble protein abundance was found to be 1.03 ± 0.052.

On to “E9PS74 and related entries (UniProt Q8NBI5)”, for which the NP40-soluble protein abundance is 1.04 ± 0.028.

“G0XQ39 and related entries (UniProt Q13586)”: the NP40-soluble protein abundance turned out to be 1.04 ± 0.047.

Regarding “E9PMR4 and related entries (UniProt P48509)”, the NP40-soluble protein abundance was determined as 0.879 ± 0.03.

“E7ERY8 and related entries (UniProt O15014)”: the NP40-soluble protein abundance stood at 1.02 ± 0.045.

In the case of “E9PDQ8 and related entries (UniProt Q96I99)”, the NP40-soluble protein abundance amounted to 1.02 ± 0.048.

On to “F5H269 and related entries (UniProt Q9Y485)”, for which the NP40-soluble protein abundance is 0.991 ± 0.043.

As to “E7EX90 and related entries (UniProt Q14203)”, the NP40-soluble protein abundance amounted to 0.986 ± 0.062.

With “G3XAH6 and related entries (UniProt P51003)”, the NP40-soluble protein abundance was 1.02 ± 0.018.

Turning to “E7ERD7 and related entries (UniProt Q9UKU0)”, the NP40-soluble protein abundance came to 1.07 ± 0.013.

Turning to “E9PRF4 and related entries (UniProt Q15047)”, the NP40-soluble protein abundance amounted to 1.02 ± 0.076.

Consider “F1T0I1 and related entries (UniProt O15027)”, for which the NP40-soluble protein abundance worked out at 1.1 ± 0.074.
